# Reference: the supplement of paper PMC8728848
# The other results are listed elsewhere or left out.
# B1: EUL D1A second (Oryza sativa) (protein)
# chain: GAATACTIGGVPVHTVRVFSAAGEDYCLTVRNGTACLAPKNPRDDYQHWIKDMRHSNKIRDEEGYPAFALVNKVTGEAIKHSTGQGHPVKLVPYNPEYQDESVLWTESKDVGKGFRCIRMVNNIYLNFDAFHGDKDHGGIHDGTEIVLWKWCEGDNQRWKILPWILEQKLISEEDLNSAVDHHHHHH
# Key:
# Test in all cases: glycan array binding signal (z-score within array); higher = stronger binding
# Details in all cases: glycan notation: IUPAC condensed, linker removed
# [1] = target: Gal(b1-4)GlcNAc(b1-3)Gal(b1-4)GlcNAc(b1-2)[Gal(b1-4)GlcNAc(b1-3)Gal(b1-4)GlcNAc(b1-6)]Man(a1-6)[Gal(b1-4)GlcNAc(b1-3)Gal(b1-4)GlcNAc(b1-2)Man(a1-3)]Man(b1-4)GlcNAc(b1-4)GlcNAc
# Summary of the method: (§1)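 The binding signal is a Z-score computed within each array. Data were drawn from 3228 arrays in the Consortium for Functional Glycomics database, restricted to those with a known protein sequence. Scores were averaged over arrays of the same protein sequence at different concentrations or buffers, and over linkers, and negative values can be taken as non-binding.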
# [2] = target: Gal(b1-4)GlcNAc(b1-3)Gal(b1-4)GlcNAc(b1-2)[Gal(b1-4)GlcNAc(b1-3)Gal(b1-4)GlcNAc(b1-6)]Man(a1-6)[Gal(b1-4)GlcNAc(b1-3)Gal(b1-4)GlcNAc(b1-2)Man(a1-3)]Man(b1-4)GlcNAc(b1-4)[Fuc(a1-6)]GlcNAc
# Summary of the method: as §1
# [3] = target: Gal(b1-4)GlcNAc(b1-3)Gal(b1-4)GlcNAc(b1-3)Gal(b1-4)GlcNAc
# Summary of the method: as §1
# [4] = target: Gal(b1-4)GlcNAc(b1-3)Gal(b1-4)GlcNAc(b1-3)Gal(b1-4)GlcNAc(b1-2)Man(a1-3)[Gal(b1-4)GlcNAc(b1-3)Gal(b1-4)GlcNAc(b1-3)Gal(b1-4)GlcNAc(b1-2)Man(a1-6)]Man(b1-4)GlcNAc(b1-4)GlcNAc
# Summary of the method: as §1
# [5] = target: Gal(b1-4)GlcNAc(b1-3)Gal(b1-4)GlcNAc(b1-3)Gal(b1-4)GlcNAc(b1-2)Man(a1-3)[Gal(b1-4)GlcNAc(b1-3)Gal(b1-4)GlcNAc(b1-3)Gal(b1-4)GlcNAc(b1-2)Man(a1-6)]Man(b1-4)GlcNAc(b1-4)[Fuc(a1-6)]GlcNAc
# Summary of the method: as §1
# [6] = target: Gal(b1-4)GlcNAc(b1-3)Gal(b1-4)GlcNAc(b1-3)Gal(b1-4)GlcNAc(b1-2)[Gal(b1-4)GlcNAc(b1-3)Gal(b1-4)GlcNAc(b1-3)Gal(b1-4)GlcNAc(b1-6)]Man(a1-6)[Gal(b1-4)GlcNAc(b1-3)Gal(b1-4)GlcNAc(b1-3)Gal(b1-4)GlcNAc(b1-2)Man(a1-3)]Man(b1-4)GlcNAc(b1-4)[Fuc(a1-6)]GlcNAc
# Summary of the method: as §1
# [7] = target: Gal(b1-4)GlcNAc(b1-3)Gal(b1-4)GlcNAc(b1-3)Gal(b1-4)GlcNAc(b1-3)Gal(b1-4)GlcNAc(b1-2)Man(a1-3)[Gal(b1-4)GlcNAc(b1-3)Gal(b1-4)GlcNAc(b1-3)Gal(b1-4)GlcNAc(b1-3)Gal(b1-4)GlcNAc(b1-2)Man(a1-6)]Man(b1-4)GlcNAc(b1-4)GlcNAc
# Summary of the method: as §1
# [8] = target: Gal(b1-4)GlcNAc(b1-3)Gal(b1-4)GlcNAc(b1-3)Gal(b1-4)GlcNAc(b1-3)Gal(b1-4)GlcNAc(b1-2)Man(a1-3)[Gal(b1-4)GlcNAc(b1-3)Gal(b1-4)GlcNAc(b1-3)Gal(b1-4)GlcNAc(b1-3)Gal(b1-4)GlcNAc(b1-2)Man(a1-6)]Man(b1-4)GlcNAc(b1-4)[Fuc(a1-6)]GlcNAc
# Summary of the method: as §1
# [9] = target: Gal(b1-4)GlcNAc(b1-3)Gal(b1-4)GlcNAc(b1-3)Gal(b1-4)GlcNAc(b1-3)Gal(b1-4)GlcNAc(b1-2)[Gal(b1-4)GlcNAc(b1-3)Gal(b1-4)GlcNAc(b1-3)Gal(b1-4)GlcNAc(b1-3)Gal(b1-4)GlcNAc(b1-6)]Man(a1-6)[Gal(b1-4)GlcNAc(b1-3)Gal(b1-4)GlcNAc(b1-3)Gal(b1-4)GlcNAc(b1-3)Gal(b1-4)GlcNAc(b1-2)Man(a1-3)]Man(b1-4)GlcNAc(b1-4)[Fuc(a1-6)]GlcNAc
# Summary of the method: as §1
# [10] = target: Gal(b1-4)GlcNAc(b1-3)Gal(b1-4)GlcNAc(b1-3)Gal(b1-4)GlcNAc(b1-3)Gal(b1-4)GlcNAc(b1-3)Gal(b1-4)GlcNAc(b1-2)Man(a1-3)[Gal(b1-4)GlcNAc(b1-3)Gal(b1-4)GlcNAc(b1-3)Gal(b1-4)GlcNAc(b1-3)Gal(b1-4)GlcNAc(b1-3)Gal(b1-4)GlcNAc(b1-2)Man(a1-6)]Man(b1-4)GlcNAc(b1-4)GlcNAc
# Summary of the method: as §1
# [11] = target: Gal(b1-4)GlcNAc(b1-3)Gal(b1-4)GlcNAc(b1-3)Gal(b1-4)GlcNAc(b1-3)Gal(b1-4)GlcNAc(b1-3)Gal(b1-4)GlcNAc(b1-2)Man(a1-3)[Gal(b1-4)GlcNAc(b1-3)Gal(b1-4)GlcNAc(b1-3)Gal(b1-4)GlcNAc(b1-3)Gal(b1-4)GlcNAc(b1-3)Gal(b1-4)GlcNAc(b1-2)Man(a1-6)]Man(b1-4)GlcNAc(b1-4)[Fuc(a1-6)]GlcNAc
# Summary of the method: as §1
# [12] = target: Gal(b1-4)GlcNAc(b1-3)Gal(b1-4)GlcNAc(b1-3)Gal(b1-4)GlcNAc(b1-3)Gal(b1-4)GlcNAc(b1-3)Gal(b1-4)GlcNAc(b1-2)[Gal(b1-4)GlcNAc(b1-3)Gal(b1-4)GlcNAc(b1-3)Gal(b1-4)GlcNAc(b1-3)Gal(b1-4)GlcNAc(b1-3)Gal(b1-4)GlcNAc(b1-6)]Man(a1-6)[Gal(b1-4)GlcNAc(b1-3)Gal(b1-4)GlcNAc(b1-3)Gal(b1-4)GlcNAc(b1-3)Gal(b1-4)GlcNAc(b1-3)Gal(b1-4)GlcNAc(b1-2)Man(a1-3)]Man(b1-4)GlcNAc(b1-4)[Fuc(a1-6)]GlcNAc
# Summary of the method: as §1
# [13] = target: Gal(b1-4)GlcNAc(b1-3)Gal(b1-4)GlcNAc(b1-3)Gal(b1-4)GlcNAc(b1-3)Gal(b1-4)GlcNAc(b1-3)Gal(b1-4)GlcNAc(b1-3)Gal(b1-4)GlcNAc(b1-2)Man(a1-3)[Gal(b1-4)GlcNAc(b1-3)Gal(b1-4)GlcNAc(b1-3)Gal(b1-4)GlcNAc(b1-3)Gal(b1-4)GlcNAc(b1-3)Gal(b1-4)GlcNAc(b1-3)Gal(b1-4)GlcNAc(b1-2)Man(a1-6)]Man(b1-4)GlcNAc(b1-4)GlcNAc
# Summary of the method: as §1
# [14] = target: Gal(b1-4)GlcNAc(b1-3)Gal(b1-4)GlcNAc(b1-3)GalNAc
# Summary of the method: as §1
# [15] = target: Gal(b1-4)GlcNAc(b1-3)Gal(b1-4)GlcNAc(b1-3)[Gal(b1-4)GlcNAc(b1-3)Gal(b1-4)GlcNAc(b1-6)]GalNAc
# Summary of the method: as §1
# [16] = target: Gal(b1-4)GlcNAc(b1-3)Gal(b1-4)GlcNAc(b1-6)[Gal(b1-3)]GalNAc
# Summary of the method: as §1
# [17] = target: Gal(b1-4)GlcNAc(b1-3)Gal(b1-4)[Fuc(a1-3)]GlcNAc(b1-3)Gal(b1-4)[Fuc(a1-3)]GlcNAc
# Summary of the method: as §1
# [18] = target: Gal(b1-4)GlcNAc(b1-3)GalNAc
# Summary of the method: as §1
# [19] = target: Gal(b1-4)GlcNAc(b1-3)[Fuc(a1-3)GlcNAc(b1-6)]Gal(b1-4)Glc
# Summary of the method: as §1
# [20] = target: Gal(b1-4)GlcNAc(b1-3)[Gal(b1-4)GlcNAc(b1-6)]Gal(b1-4)GlcNAc
# Summary of the method: as §1
# [21] = target: Gal(b1-4)GlcNAc(b1-3)[GlcNAc(b1-6)]Gal(b1-4)GlcNAc
# Summary of the method: as §1
# [22] = target: Gal(b1-4)GlcNAc(b1-6)Gal(b1-4)GlcNAc
# Summary of the method: as §1
# [23] = target: Gal(b1-4)GlcNAc(b1-6)GalNAc
# Summary of the method: as §1
# [24] = target: Gal(b1-4)GlcNAc(b1-6)[Gal(b1-3)]GalNAc
# Summary of the method: as §1
# [25] = target: Gal(b1-4)GlcNAc(b1-6)[Gal(b1-4)GlcNAc(b1-3)]GalNAc
# Summary of the method: as §1
# [26] = target: Gal(b1-4)GlcNAc6P
# Summary of the method: as §1
# [27] = target: Gal(b1-6)Gal
# Summary of the method: as §1
# [28] = target: Gal3S(b1-3)GalNAc
# Summary of the method: as §1
# [29] = target: Gal3S(b1-3)GlcNAc
# Summary of the method: as §1
# [30] = target: Gal3S(b1-3)[Fuc(a1-4)]GlcNAc
# Summary of the method: as §1
# [31] = target: Gal3S(b1-4)Glc
# Summary of the method: as §1
# [32] = target: Gal3S(b1-4)Glc6S
# Summary of the method: as §1
# [33] = target: Gal3S(b1-4)GlcNAc
# Summary of the method: as §1
# [34] = target: Gal3S(b1-4)[Fuc(a1-3)]Glc6S
# Summary of the method: as §1
# [35] = target: Gal3S(b1-4)[Fuc(a1-3)]GlcNAc
# Summary of the method: as §1
# [36] = target: Gal3S(b1-4)[Fuc(a1-3)]GlcNAc6S
# Summary of the method: as §1
# [37] = target: Gal3S4S(b1-4)GlcNAc
# Summary of the method: as §1
# [38] = target: Gal3S6S(b1-4)GlcNAc
# Summary of the method: as §1
# [39] = target: Gal3S6S(b1-4)GlcNAc6S
# Summary of the method: as §1
# [40] = target: Gal4S(b1-4)GlcNAc
# Summary of the method: as §1
# [41] = target: Gal4S6S(b1-4)GlcNAc
# Summary of the method: as §1
# [42] = target: Gal6P(b1-4)GlcNAc
# Summary of the method: as §1
# [43] = target: Gal6S(b1-3)GlcNAc
# Summary of the method: as §1
# [44] = target: Gal6S(b1-3)GlcNAc6S
# Summary of the method: as §1
# [45] = target: Gal6S(b1-4)Glc
# Summary of the method: as §1
binder,measurement,setting,value
B1,glycan array binding signal (z-score),[1],0.486
same,glycan array binding signal (z-score),[2],3.31
same,glycan array binding signal (z-score),[3],0.445
same,glycan array binding signal (z-score),[4],0.087
same,glycan array binding signal (z-score),[5],1.62
same,glycan array binding signal (z-score),[6],1.59
same,glycan array binding signal (z-score),[7],0.694
same,glycan array binding signal (z-score),[8],1.04
same,glycan array binding signal (z-score),[9],0.438
same,glycan array binding signal (z-score),[10],0.641
same,glycan array binding signal (z-score),[11],0.004
same,glycan array binding signal (z-score),[12],1.52
same,glycan array binding signal (z-score),[13],0.069
same,glycan array binding signal (z-score),[14],0.955
same,glycan array binding signal (z-score),[15],1.33
same,glycan array binding signal (z-score),[16],0.838
same,glycan array binding signal (z-score),[17],1.66
same,glycan array binding signal (z-score),[18],-0.258
same,glycan array binding signal (z-score),[19],0.014
same,glycan array binding signal (z-score),[20],0.949
same,glycan array binding signal (z-score),[21],-1.47
same,glycan array binding signal (z-score),[22],-0.144
same,glycan array binding signal (z-score),[23],1.2
same,glycan array binding signal (z-score),[24],0.488
same,glycan array binding signal (z-score),[25],-0.385
same,glycan array binding signal (z-score),[26],0.182
same,glycan array binding signal (z-score),[27],1.02
same,glycan array binding signal (z-score),[28],0.302
same,glycan array binding signal (z-score),[29],-0.555
same,glycan array binding signal (z-score),[30],0.949
same,glycan array binding signal (z-score),[31],-0.323
same,glycan array binding signal (z-score),[32],-0.241
same,glycan array binding signal (z-score),[33],0.255
same,glycan array binding signal (z-score),[34],2.74
same,glycan array binding signal (z-score),[35],2.4
same,glycan array binding signal (z-score),[36],0.696
same,glycan array binding signal (z-score),[37],-0.752
same,glycan array binding signal (z-score),[38],1.92
same,glycan array binding signal (z-score),[39],0.549
same,glycan array binding signal (z-score),[40],-0.126
same,glycan array binding signal (z-score),[41],0.675
same,glycan array binding signal (z-score),[42],-1.25
same,glycan array binding signal (z-score),[43],0.058
same,glycan array binding signal (z-score),[44],-1.04
same,glycan array binding signal (z-score),[45],0.271

# Reformatted with bars between the fields: part of the list above.
binder | measurement | setting | value
B1 | glycan array binding signal (z-score) | [6] | 1.59
same | glycan array binding signal (z-score) | [7] | 0.694
same | glycan array binding signal (z-score) | [8] | 1.04
